From PubChem BioAssay AID540256 (National Center for Advancing Translational Sciences (NCATS), 2011)
Hit rate of the full screen: of about 300,000 compounds, about 3,700 (1.2%) were called active. The inconclusive results got no clear call from the source; some entries with a clear call stand among them for comparison. Calls follow the shape of the full dose curve; tested in HEK293 cells. Potencies beside an inconclusive call are fits to weak or partial responses and may not hold up.

Test: qHTS for Inhibitors of binding or entry into cells for Lassa Virus; also: nearly all actives have a fitted effect of over 50% in size
Settings: Lassa virus pseudotype entry inhibition, cell reporter; series mostly up to 37.9 µM
Potency is read from the fitted curve at half-maximal effect.

Row | SMILES | Potency
1 | Cn1c(CCNC(=O)c2cccs2)nnc1SCC(=O)Nc1nc(-c2ccccc2)cs1 | inactive
2 | COCCN1Cc2cccc(C(=O)NCc3ccc4c(c3)OCO4)c2C1=O | inconclusive: 5.01 µM [inhibitor, partial curve, poor fit]
3 | Cc1ccc(S(=O)(=O)CC(=O)Nc2sc3c(c2C#N)CCCC3)cc1 | inactive
4 | COc1ccc(/C=N/NC(=O)CSc2nnc(CCCc3ccc(OC)c(C)c3)o2)cc1 | active: 7.94 µM
5 | O=C(Nc1nc2n(n1)C(c1ccccc1)CC(c1ccc(Cl)cc1)N2)c1ccco1 (centres undefined) | inactive
6 | O=C(OCc1c(Cl)cccc1Cl)c1ccncc1 | inconclusive: 35.5 µM [activator, partial curve, poor fit]
7 | CC(=O)N(c1nc(CCl)cs1)c1c(C)cc(C)cc1C | inactive
8 | Nc1ncnc2occ(-c3ccc(NC(=O)Nc4cc(C(F)(F)F)cc(C(F)(F)F)c4)cc3)c12 | active: 19.9 µM
9 | CCOC(=O)c1ccc(N2C(=O)c3n[nH]c(-c4ccco4)c3C2c2ccc(O)cc2)cc1 (centres undefined) | inconclusive: 0.631 µM [inhibitor, full curve, poor fit]
10 | O=C(NNC(=O)c1cc(-c2ccc(Cl)cc2Cl)nc2ccccc12)Nc1ccccc1 | inconclusive: 15.8 µM [inhibitor, partial curve]
11 | Cc1ccc(C)c(Cn2nnc3c(=O)[nH]c(C4CCN(S(=O)(=O)c5ccc(S(=O)(=O)N(C)C)cc5)CC4)nc32)c1 | inconclusive: 6.31 µM [inhibitor, full curve, poor fit]
12 | Cc1ccc(CN2C(=O)N/C(=C\c3cccn3-c3cccc(C(=O)O)c3)C2=O)cc1 | inactive
13 | CCCN(CCC)CCCNC(=O)C1CCN(S(=O)(=O)CC)CC1 | inconclusive: 3.55 µM [activator, single point]
14 | CCOC(=O)CCNC(=O)Nc1ccc2nc(C)n(Cc3ccc(Cl)cc3)c(=O)c2c1 | inactive
15 | O=C(Cn1c(=S)[nH]c2ccccc21)c1ccccc1 | inconclusive: 0.447 µM [activator, single point]
16 | COc1ccc(-c2cc(C(=O)NNC(=S)NC(=O)c3c(-c4ccccc4)noc3C)[nH]n2)cc1 | inactive
17 | C=CCSc1nnc(-c2nnc(SCC=C)n2-c2ccccc2)n1-c1ccccc1 | inconclusive: 11.2 µM [inhibitor, partial curve, poor fit]
18 | COc1ccc(Cc2nn3c(-c4ccccc4Br)nnc3s2)cc1 | inconclusive: 9.2 µM [inhibitor, partial curve]
19 | COc1ccc(N(C(=O)c2snc(C(N)=O)c2N)C(C(=O)NC2CCCC2)c2cc(OC)ccc2OC)cc1 (centres undefined) | inconclusive: 35.5 µM [inhibitor, single point]
20 | O=C(NCCc1ccc(F)cc1)Nc1ccccc1Cl | inactive
21 | COc1ccc(NC(=O)Cc2coc3cc(C)ccc23)cc1S(=O)(=O)N1CCOCC1 | inconclusive: 5.62 µM [activator, partial curve, poor fit]
22 | O=C(Nc1ccc(Cl)cn1)C1COc2ccccc2O1 (centres undefined) | inactive
23 | CN(Cc1ccccc1Cl)C(=O)c1cc2ccccc2o1 | inconclusive: 14.1 µM [inhibitor, partial curve, poor fit]

Pulled by structure from the entries so far, five records:
Row | SMILES | Potency
23 | CN(Cc1ccccc1Cl)C(=O)c1cc2ccccc2o1 | inconclusive: 14.1 µM [inhibitor, partial curve, poor fit]
21 | COc1ccc(NC(=O)Cc2coc3cc(C)ccc23)cc1S(=O)(=O)N1CCOCC1 | inconclusive: 5.62 µM [activator, partial curve, poor fit]
17 | C=CCSc1nnc(-c2nnc(SCC=C)n2-c2ccccc2)n1-c1ccccc1 | inconclusive: 11.2 µM [inhibitor, partial curve, poor fit]
5 | O=C(Nc1nc2n(n1)C(c1ccccc1)CC(c1ccc(Cl)cc1)N2)c1ccco1 (centres undefined) | inactive
6 | O=C(OCc1c(Cl)cccc1Cl)c1ccncc1 | inconclusive: 35.5 µM [activator, partial curve, poor fit]

(next part)

Row | SMILES | Potency
24 | CN(C)c1cccc2c1c(NC(=O)c1ccc(Cl)cc1)nn2C | inactive
25 | Cc1nn(CC(=O)Nc2cccc(S(N)(=O)=O)c2)c(C)c1[N+](=O)[O-] | inconclusive: 0.794 µM [inhibitor, full curve, poor fit]
26 | COc1cccc(C(=O)NC(=S)Nc2ccccc2N2CCOCC2)c1 | inconclusive: 3.98 µM [inhibitor, partial curve, poor fit]
27 | O=C(CCN1C(=O)/C(=C/c2cccs2)SC1=S)Nc1cccc(O)c1 | inconclusive: 35.5 µM [inhibitor, single point]
28 | Cn1c(C(C(=O)NCC2CCCO2)N(CCc2ccccc2)C(=O)Cn2nnc3ccccc32)nc2ccccc21 (centres undefined) | inconclusive: 5.8 µM [inhibitor, partial curve, poor fit]
29 | O=C(Nc1ccc2c(c1)OCO2)c1ccccc1 | inconclusive: 14.1 µM [inhibitor, single point]
30 | CCCN1CCN(CCCNC(=O)Cn2nc(-c3ccc(C)cc3)ccc2=O)CC1 | inconclusive: 29.1 µM [activator, single point]
31 | O=C(Nc1cc(S(=O)(=O)N2CCOCC2)ccc1Cl)c1cc([N+](=O)[O-])ccc1Cl | inconclusive: 35.5 µM [inhibitor, single point]
32 | CN1CCN(/N=C/c2ccc(N(C)c3ccccc3)cc2)CC1 | inactive
33 | Cc1ccc(C(=O)CSc2nc3ccccc3o2)cc1 | inactive
34 | O=C(NC(=S)Nc1ccccc1N1CCCCC1)c1cccs1 | inactive
35 | CC(CC(=O)Nc1ccc(Cl)c([N+](=O)[O-])c1)c1ccccc1 (centres undefined) | inconclusive: 35.5 µM [inhibitor, single point]
36 | Cc1ccccc1-n1c(SCC(=O)NCC2CCCO2)nc2c([nH]c3ccccc32)c1=O (centres undefined) | inconclusive: 12.6 µM [inhibitor, partial curve, poor fit]
37 | O=C(Nc1cccc(Cl)c1)c1cccc(Oc2ccc([N+](=O)[O-])cc2Cl)c1 | inactive
38 | COc1ccc(OC)c(C2C3=C(N=C4SCC(=O)N42)c2ccccc2CC3)c1 (centres undefined) | inconclusive: 35.5 µM [activator, single point]
39 | CN(C)S(=O)(=O)c1cccc(COC(=O)c2ccc3c(c2)OCO3)c1 | inactive
40 | COc1ccc(/C=C2\C(=O)NC(=S)N2C(=O)c2ccc(F)cc2)cc1 | inactive
41 | COc1cc(Cl)c(C)cc1NC(=O)c1cn(C2CCCC2)c(=O)c2c1c1ccccc1n2C | inconclusive: 1 µM [activator, partial curve, poor fit]
42 | COc1ccc(C(=O)Nc2ccc3nc(N4CCC(C)CC4)cc(C)c3c2)cc1 | inactive
43 | COc1ccccc1NC(=O)CCCCCN1C(=O)c2cccc3cccc(c23)C1=O | inconclusive: 7.94 µM [inhibitor, partial curve, poor fit]
44 | CN(C)C(CNC(=O)CCNC(=O)c1ccc(Br)cc1)c1ccco1 (centres undefined) | inconclusive: 11.2 µM [activator, single point]
45 | COc1ccc(Cl)cc1NC(=O)CN1CCN(Cc2ccccc2)CC1 | inconclusive: 10 µM [inhibitor, partial curve, poor fit]
46 | O=C(COc1ccccc1[N+](=O)[O-])Nc1cccc(S(=O)(=O)NC2=NCCCCC2)c1 | inconclusive: 35.5 µM [activator, single point]

Row | SMILES | Potency
47 | CC1CC1C(=O)OCC(=O)Nc1cccc(Br)c1 (centres undefined) | inactive
48 | COc1ccc(C2=NOC(C(=O)NCc3ccc(F)cc3)C2)cc1 (centres undefined) | inconclusive: 2.82 µM [inhibitor, partial curve, poor fit]
49 | O=C1CCOc2cc(OCc3ccccc3)ccc21 | inconclusive: 20.6 µM [inhibitor, partial curve, poor fit]
50 | Cc1ccc2nc(-c3cc(NC(=O)/C=C/c4ccccc4)ccc3Cl)oc2c1 | inconclusive: 35.5 µM [inhibitor, single point]
51 | CCC(=O)N1CCN(c2ccc(NC(=O)COc3cccc(C)c3C)cc2)CC1 | inconclusive: 8.91 µM [inhibitor, partial curve, poor fit]
52 | CCN=c1sc2ccccc2n1CC(O)COc1ccccc1 (centres undefined) | inactive
53 | Cc1ccc(-c2nc(N/N=C/c3ccccc3[N+](=O)[O-])c3ccccc3n2)cc1 | inconclusive: 14.6 µM [inhibitor, single point]
54 | Cc1cc(N2CCOCC2)nc2ccc(NC(=O)CCC(=O)N3CCN(c4ccccc4F)CC3)cc12 | inconclusive: 5.62 µM [inhibitor, full curve]
55 | COc1ccccc1N(C)S(=O)(=O)c1ccc(C(=O)O)cc1 | inactive
56 | CC(CCCC(C)(C)O)NC(=O)c1ccc(OC2CCN(C(=O)C3CC3)CC2)cc1 (centres undefined) | inconclusive: 8.91 µM [inhibitor, partial curve, poor fit]
57 | O=C(CSc1nnc(-c2ccc(O)cc2)n1Cc1ccco1)c1cccs1 | inactive
58 | COc1cc(C)ccc1OCc1cc(C(=O)NC(C)Cn2cncn2)no1 (centres undefined) | inconclusive: 3.16 µM [activator, partial curve, poor fit]
59 | Cn1nnnc1SCc1nc2ccccc2[nH]1 | inactive
60 | COC(=O)c1ccccc1NC(=O)c1cc(-c2ccc(Cl)cc2)on1 | inactive
61 | Cc1cc(NC(=O)c2oc3ccccc3c2C)ccc1-n1cnnn1 | inconclusive: 32.6 µM [inhibitor, single point]
62 | O=C(NC1(O)C(=O)c2ccccc2C1=O)c1ccc(C(F)(F)F)cc1 | inconclusive: 12.6 µM [inhibitor, partial curve, poor fit]
63 | Cc1ccc2nc(-c3ccc(Cl)c(NC(=O)c4ccc5c(c4)OCCO5)c3)oc2c1 | inconclusive: 11.2 µM [activator, partial curve, poor fit]
64 | O=C(CCNC(=O)c1ccc(Cl)cc1)NCc1cccc(C(F)(F)F)c1 | inconclusive: 7.08 µM [inhibitor, partial curve, poor fit]
65 | COc1ccc(-n2cnc3c(sc4nc(N5CCOCC5)c5c(c43)CCCC5)c2=O)cc1 | inconclusive: 1.26 µM [inhibitor, single point]
66 | COC(=O)/C=C/c1oc2ccccc2c1C | inactive
67 | COCCn1c(SCC(=O)Nc2ccccc2)nnc1-c1ccoc1C | inactive
68 | CCC(=O)N1CCc2cc(CNS(=O)(=O)c3c(C)cc(C)cc3C)ccc21 | inactive
69 | CCOc1ccc(NS(=O)(=O)c2ccc(C(=O)NCC(c3ccc(OC)cc3)N3CCCC3)cc2)cc1 (centres undefined) | inconclusive: 11.2 µM [inhibitor, partial curve, poor fit]
